Like-named read-outs stand apart in the source and are kept apart here. Structures were worked out from names or drawings and are uncertain.
Key:
PDK1 kinase = PDK1 kinase (Homo sapiens, UniProt O15530); test: PDK1 Kinase Alpha Screen Assay; assay type: biochemical
Experimental: 1. PDK1 Kinase Alpha Screen Assay
Reagents/Concentrations: The PDK1-4 peptide substrate, biotin-[…]-NH2, was purchased from the Tufts University Core Facility. The final concentration of PDK1-4 peptide substrate was 50 nM The ATP substrate (Adenosine-5′-triphosphate) was purchased from Roche Diagnostics. The final concentration of ATP substrate was 10 uM. Phospho-(Ser/Thr) PKA substrate antibody was purchased from Cell Signaling Technology. The final concentration of antibody was 0.3 mg/ml. The Alpha Screen Protein A detection kit containing donor and acceptor beads was purchased from PerkinElmer Life Sciences. The final concentration of both donor and acceptor beads was 25 μg/ml. Alpha Screen was used for detection. The biotinylated-PDK1-4 peptide was phosphorylated by PDK1 kinase using the ATP substrate. The biotinylated-PDK1-4 peptide substrate was bound to the streptavidin coated donor bead. The antibody was bound to the protein A coated acceptor bead. The antibody bound to the phosphorylated form of the biotinylated PDK-1 peptide substrate, bringing the donor and acceptor beads into close proximity. Laser irradiation of the donor bead at 680 nm generated a flow of short-lived singlet oxygen molecules. When the donor and acceptor beads were in close proximity, the reactive oxygen generated by the irradiation of the donor beads initiated a luminescence/fluorescence cascade in the acceptor beads. This process led to a highly amplified signal with output in the 530-620 nm range. Assays were carried out in 50 mM Tris, pH=7.5, 10 mM MgCl2, 0.1% Bovine Serum Albumin, 0.01% Tween-20, 2 mM Dithiolthreitol, 2.5% Dimethyl Sulfoxide. Reactions were stopped by adding 50 mM Tris, pH=7.5, 90 mM EDTA, 0.1% Bovine Serum Albumin, 0.01% Tween-20.
Procedure: To 10 μl of PDK1-4 peptide, 0.5 μl of test compound in dimethyl sulfoxide is added. PDK1 kinase and ATP are mixed. 10 μl of the PDK1 kinase/ATP mix is added to start the reaction. The reaction is allowed to proceed for 3-18 hours. The reactions are stopped by adding 10 μl of the EDTA-containing stop buffer. Beads are mixed with antibody. 25 μl of the bead/antibody mix is added to the stopped reactions. Plates are incubated at room temperature overnight to allow for detection development before being read. The assay is run is a 384-well format. […]

The chains behind the UniProt entries cited, without tags or fusion partners.
UniProt O15530, whole entry: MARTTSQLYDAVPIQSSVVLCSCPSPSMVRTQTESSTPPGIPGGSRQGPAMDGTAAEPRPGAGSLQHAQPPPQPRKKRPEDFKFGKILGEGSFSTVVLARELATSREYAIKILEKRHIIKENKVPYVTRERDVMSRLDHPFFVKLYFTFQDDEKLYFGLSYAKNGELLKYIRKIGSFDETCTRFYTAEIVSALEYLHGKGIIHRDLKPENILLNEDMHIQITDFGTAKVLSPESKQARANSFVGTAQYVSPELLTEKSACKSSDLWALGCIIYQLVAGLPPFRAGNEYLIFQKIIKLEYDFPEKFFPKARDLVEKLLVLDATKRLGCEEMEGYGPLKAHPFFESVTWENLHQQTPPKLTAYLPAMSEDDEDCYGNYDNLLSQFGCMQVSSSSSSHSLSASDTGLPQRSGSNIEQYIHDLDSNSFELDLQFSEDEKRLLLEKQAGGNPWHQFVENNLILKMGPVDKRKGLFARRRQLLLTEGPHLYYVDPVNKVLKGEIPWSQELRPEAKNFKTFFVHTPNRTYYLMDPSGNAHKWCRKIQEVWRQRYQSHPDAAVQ

PC-3 cells = test: Cell Proliferation Assay (Cell Titer Glo), PC-3 cell line; details: read-out: CPEC50 PC3
Experimental: (§1) IV. Cell Proliferation Assay Protocol:
(§2) A2780, PC-3, or PC3MM cells were seeded at 1000 cells/well in 100 μL/well (10.000 cells/mL) growth media in 96-well plates. Cells were allowed to adhere to the bottom of plates for 3-5 hours in a 37° C. 5% CO2 incubator. Compounds were dissolved in DMSO and then transferred to the cell plates. The cells were incubated with the compounds for 3 days in a 37° C. 5% CO2 incubator. The growth medium containing the compounds was then removed from the cells and fresh medium was added, followed by 100 μL of Cell Titer Glo assay reagent (Promega). This mixture was shaken for 1 minute and then incubated without shaking for 10 minutes. Activity determinations for the compounds were made by detection on a Trilux Instrument.
V. Cell Proliferation Assay Protocol: PC-3 Cell Line
PC-3 cells were seeded at 1000 cells/well in 100 μL/well (10.000 cells/mL) along with growth media into black-walled, clear bottom 96-well plates. The cells were allowed to adhere to the bottom of the plate for 3-5 hours in a 37° C. 5% CO2 incubator.
Test compounds were diluted to 500× in DMSO. The DMSO solutions of six of the compounds were transferred to the cells in the 96 well round bottom plate, column 2, row B-F. A 1:3 serial dilution of each compound was carried out. The serial dilution comprised adding 20 μL of DMSO to the wells containing the compounds and doing a 1:3 dilution across the plate from columns 2-10. Column 11 contained only DMSO. The serial dilution was carried out using a BioMek 2000 protocol “CP Serial Dilution using 250 μL tips” or “Proliferation Compound” (if using 20 μL tips).
To a 96 deep well block, columns 2-11 rows B-F, was transferred 500 μL of growth medium. Using the FX protocol “HH_CellAssay—2 μL to 500 μL”, 2 μL of compound from each cell of the compound plate was transferred to the corresponding cell in the 96 deep well block containing 500 μL of growth medium. […] The plates were then read using a Trilux instrument.

PC3MM cells = test: Cell Proliferation Assay (Cell Titer Glo), PC3MM; details: read-out: CPEC50 PC3MM
Experimental: as §1, §2

| SMILES | IC50 (PDK1 kinase; read-out: PDK1 IC50) | EC50 (PC-3 cells) | EC50 (PC3MM cells) | IC50 (PDK1 kinase; read-out: PDK1 BV11261, head of the second part of Table 4: BV11261) |
| --- | --- | --- | --- | --- |
| FC(F)(F)c1ccc(Nc2ncc3cccc(-c4ccc(NCCN5CCCC5)nc4)c3n2)cc1 | < 5 µM | < 5 µM |  |  |
| CC(C)Cn1cc(-c2ccc3cnc(Nc4ccc(N5CCOCC5)cc4)nc3c2)cn1 | < 5 µM | < 5 µM |  |  |
| CC(C)Cn1cc(-c2ccc3cnc(Nc4cccc(N5CCOCC5)c4)nc3c2)cn1 | < 5 µM | < 5 µM |  |  |
| COc1c(-c2cnn(CC(C)C)c2)ccc2cnc(Nc3cc(CN4CCOCC4)cc(NC(C)=O)c3)nc12 [Compound 715, N-(3-(7-(1-isobutyl-1H-pyrazol-4-yl)-8-methoxyquinazolin-2-ylamino)-5-(morpholinomethyl)phenyl)acetamide] |  |  | < 5 µM | < 5 µM |

Reference: US7932262B2 (Novartis AG, priority 2006, dated 2011)
